Measured values as given in patent publication US20250144104A1, “DISCOVERY OF A NEW INHIBITOR FOR THE YTH DOMAIN-CONTAINING M6A RNA READERS” (The Trustees of Boston College, priority 2023, published 2025).
pIC50: −log10 of the molar value. Some results were stated once for a whole list of compounds, not compound by compound. At least one structure is not confirmed: it was looked up by name or label, or the drawing left a doubt.

Test system: T1, YTH domains of YTHDF1, YTHDF2, YTHDF3, YTHDC1, and YTHDC2
T1 construct: except m^6A nucleoside aga; other: YTHDF1, YTHDF2, YTHDF3, YTHDC1, YTHDC2; fused on or other part: N-terminal His-tag
Experiment: FP competition assay, results stated jointly for several YTH domains
Format: binding, human
Conditions: IC50>2 mM or not detectable; except m^6A nucleoside against YTH^YTHDF2; read-out: IC50 against all five YTH domains, FP competition assay
Text: The m^6A nucleoside was ordered from AmBeed. […] 6-(methylamino) purine was purchased from Fisher Scientific.

## CNc1ncnc2c1ncn2[C@@H]1O[C@H](CO)[C@@H](O)[C@H]1O [m^6A nucleoside]
  pIC50: < 2.70
